Measurements: patent US20240277847A1, “BENCH-STABLE TRIAZENE COMPOSITIONS FOR PROTEIN MODIFICATION” (ARIZONA BOARD OF REGENTS ON BEHALF OF THE UNIVERSITY OF …, priority 2021, published 2024)

Tests used:
[1] = Effect of ring structure on diazonium release, 1 hr 370 nm UV at pH 7 with resorcinol; type: physicochemical; conditions: 1 equivalent resorcinol, 50% MeOH / 0.1 M PBS pH 7, 370 nm UV irradiated 1 hr
[2] = Diazonium release in pH 4 citrate buffer, trapped with resorcinol as azo-adduct; type: physicochemical; conditions: 1 equivalent resorcinol, 0.1 M pH 4 citrate buffer, 3 hours

Structure (SMILES)	relative yield of azo-adduct [1]	yield of azo-adduct [2]
c1ccc(N=NN2CCOCC2)cc1 [5a]	8%	
Brc1ccc(N=NN2CCCCC2)cc1 [p-Br]		diminished yields
FC(F)(F)c1ccc(N=NN2CCCCC2)cc1 [1c]		failed to produce any of the corresponding azo-adducts
c1ccc(N=NN2CCCCC2)cc1 [1g]		20%
N#Cc1ccc(N=NN2CCCCC2)cc1 [1b]		failed to produce any of the corresponding azo-adducts
Cc1ccc(N=NN2CCCCC2)cc1 [1h]	30%	31%
COc1ccc(N=NN2CCCCC2)cc1 [1i]		56%
O=[N+]([O-])c1ccc(N=NN2CCCCC2)cc1 [1a]		failed to produce any of the corresponding azo-adducts
CNC(=O)c1ccc(N=NN2CCCCC2)cc1 [p-CONHCH3]		failed to produce any of the corresponding azo-adducts
c1ccc(N=NN2CCCC2)cc1 [3a]	32%	
COc1cccc(N=NN2CCCCC2)c1 [m-OCH3]		diminished yields

Some entries repeat one wording, which the source may state once for all of them.
